The assay has as its target T1, His-tagged CD14 (UniProt P08571).
T1 sequence: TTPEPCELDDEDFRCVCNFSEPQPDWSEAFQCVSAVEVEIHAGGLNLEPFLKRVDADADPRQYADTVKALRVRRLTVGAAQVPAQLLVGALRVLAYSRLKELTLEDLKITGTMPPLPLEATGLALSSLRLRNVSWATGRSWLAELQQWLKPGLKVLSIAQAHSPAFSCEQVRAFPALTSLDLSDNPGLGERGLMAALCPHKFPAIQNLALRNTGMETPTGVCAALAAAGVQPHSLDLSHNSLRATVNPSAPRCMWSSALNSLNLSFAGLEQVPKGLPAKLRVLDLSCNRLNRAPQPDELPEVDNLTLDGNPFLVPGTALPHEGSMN
The experiment in a line: co-IP; anti-His antibody on Protein A/G agarose beads; His-tagged CD14 0.25 ug with or without sLN 1.0 ug for 1 h; beads washed, boiled, dot-blot probed with anti-sLN antibody; both purified.

Among the data in paper PMC11505976 are binding values, retold here.

Results are given in words; binding and its absence hold for the method and conditions named. Some binding calls cover weakened binding; strength is not graded here. Sequences can lack the tags named with a protein.

For DHLSDNYT [Short Link N], the binding entry is on record as “binds”.
